The subject of the data set is MDA-MB-468 breast cancer cells. Put plainly: Cytotoxicity test (CCK-8). The format is cell-based. The note with it: anti-proliferation IC50 in MDA-MB-468 / inhibition IC50 against Kir4.1. How it is done:
Cytotoxicity of all the tested compounds was determined using the cell counting kit‐8 (CCK‐8) assay kit (Beyotime, Shanghai, China). Briefly, MDA‐MB‐468 was cultured in L15 medium and plated in 96‐well plates at a density of 12,000 cells per well for 24 h at 37 °C in a 5% CO2 incubator. The tested compounds were dissolved in DMSO and diluted with culture medium (DMSO final concentration < 0.4%). Then the cells were treated with compounds (0.41, 1.23, 3.70, 11.11, 33.33, 100.00 µM) for 48 h. After treatments, removal of the supernatant liquor, 100 µL of new media diluted CCK‐8 solution (10% CCK‐8) was added into each well and incubated at 37 °C for 2 h. The absorbance of the mixture was directly measured at 450 nm. The results are presented as a percentage of the control.

The source of these data is PMC12903969, “Discovery of a Novel and Potent Kir4.1 Inhibitor as a Safe and Rapid‐Onset Antidepressant Agent in Mice” (Advanced Science, 2025).

Regarding `c1ccc2c(c1)oc1ccc(Nc3ccnc(NCCCN4CCOCC4)n3)cc12` [JX3212, N^4-(dibenzo[b,d]furan-2-yl)-N^2-(3-morpholinopropyl)pyrimidine-2,4-diamine], the “preliminary therapeutic index (TI)” value is “≈ 49”.
